The list shows a part of the results.
compound: C[C@H](Nc1ncnc2nc[nH]c12)c1cc2cccc(Cl)c2c(=O)n1-c1ccccc1 [duvelisib]; test: log2 fold change, soluble protein after heating vs DMSO (PISA); higher = thermal stabilisation; K562 lysate, 10 uM; active = over 0.2 and 3.5 SD of the protein, either way, in both replicates (recomputed)
Procedure, shortened: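 Quantification was by TMTpro 16plex LC-MS/MS with equalised channel sums, applied to the supernatant after 21,000xg for 90 min. Samples were crude K562 extract at 1 mg/mL protein in PBS pH 7.4 with 1 mM MgCl2, treated with 10 μM compound for 30 min, heated for 3 min across 48°C-58°C, pooled and brought to 0.5% NP-40 at 4°C. Values are log-two fold changes in thermal stability relative to solvent controls, from duplicates.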

The chains behind the UniProt entries cited, without tags or fusion partners. Where a name states a change or a piece, a line headed by the entry shows the natural chain unless it says otherwise.
UniProt Q86UV5: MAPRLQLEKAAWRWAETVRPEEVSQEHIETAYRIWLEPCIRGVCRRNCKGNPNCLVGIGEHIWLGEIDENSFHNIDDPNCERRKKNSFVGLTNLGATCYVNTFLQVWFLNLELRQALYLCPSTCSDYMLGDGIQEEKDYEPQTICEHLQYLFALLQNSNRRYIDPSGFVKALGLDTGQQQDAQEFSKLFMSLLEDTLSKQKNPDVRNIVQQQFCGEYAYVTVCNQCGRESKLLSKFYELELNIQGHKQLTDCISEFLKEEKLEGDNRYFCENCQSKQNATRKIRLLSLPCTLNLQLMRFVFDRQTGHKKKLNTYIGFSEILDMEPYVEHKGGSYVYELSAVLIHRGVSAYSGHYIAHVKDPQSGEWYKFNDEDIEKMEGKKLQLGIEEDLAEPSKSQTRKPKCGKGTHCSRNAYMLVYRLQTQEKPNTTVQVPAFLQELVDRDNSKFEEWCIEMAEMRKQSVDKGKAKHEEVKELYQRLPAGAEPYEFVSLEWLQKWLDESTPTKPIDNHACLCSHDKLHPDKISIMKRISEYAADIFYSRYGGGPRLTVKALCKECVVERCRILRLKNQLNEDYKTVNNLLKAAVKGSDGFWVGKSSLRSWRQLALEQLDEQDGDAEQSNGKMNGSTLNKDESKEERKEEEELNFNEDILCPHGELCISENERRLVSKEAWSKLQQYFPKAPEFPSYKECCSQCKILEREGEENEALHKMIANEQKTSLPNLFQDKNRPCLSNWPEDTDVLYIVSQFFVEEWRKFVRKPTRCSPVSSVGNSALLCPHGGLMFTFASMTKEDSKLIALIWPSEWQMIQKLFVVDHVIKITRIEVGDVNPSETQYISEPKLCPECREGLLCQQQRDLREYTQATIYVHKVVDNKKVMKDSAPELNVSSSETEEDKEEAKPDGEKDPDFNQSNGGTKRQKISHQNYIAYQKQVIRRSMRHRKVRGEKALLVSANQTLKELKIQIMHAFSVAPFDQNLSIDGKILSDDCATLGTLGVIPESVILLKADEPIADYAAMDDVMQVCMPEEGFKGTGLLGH
UniProt P40818: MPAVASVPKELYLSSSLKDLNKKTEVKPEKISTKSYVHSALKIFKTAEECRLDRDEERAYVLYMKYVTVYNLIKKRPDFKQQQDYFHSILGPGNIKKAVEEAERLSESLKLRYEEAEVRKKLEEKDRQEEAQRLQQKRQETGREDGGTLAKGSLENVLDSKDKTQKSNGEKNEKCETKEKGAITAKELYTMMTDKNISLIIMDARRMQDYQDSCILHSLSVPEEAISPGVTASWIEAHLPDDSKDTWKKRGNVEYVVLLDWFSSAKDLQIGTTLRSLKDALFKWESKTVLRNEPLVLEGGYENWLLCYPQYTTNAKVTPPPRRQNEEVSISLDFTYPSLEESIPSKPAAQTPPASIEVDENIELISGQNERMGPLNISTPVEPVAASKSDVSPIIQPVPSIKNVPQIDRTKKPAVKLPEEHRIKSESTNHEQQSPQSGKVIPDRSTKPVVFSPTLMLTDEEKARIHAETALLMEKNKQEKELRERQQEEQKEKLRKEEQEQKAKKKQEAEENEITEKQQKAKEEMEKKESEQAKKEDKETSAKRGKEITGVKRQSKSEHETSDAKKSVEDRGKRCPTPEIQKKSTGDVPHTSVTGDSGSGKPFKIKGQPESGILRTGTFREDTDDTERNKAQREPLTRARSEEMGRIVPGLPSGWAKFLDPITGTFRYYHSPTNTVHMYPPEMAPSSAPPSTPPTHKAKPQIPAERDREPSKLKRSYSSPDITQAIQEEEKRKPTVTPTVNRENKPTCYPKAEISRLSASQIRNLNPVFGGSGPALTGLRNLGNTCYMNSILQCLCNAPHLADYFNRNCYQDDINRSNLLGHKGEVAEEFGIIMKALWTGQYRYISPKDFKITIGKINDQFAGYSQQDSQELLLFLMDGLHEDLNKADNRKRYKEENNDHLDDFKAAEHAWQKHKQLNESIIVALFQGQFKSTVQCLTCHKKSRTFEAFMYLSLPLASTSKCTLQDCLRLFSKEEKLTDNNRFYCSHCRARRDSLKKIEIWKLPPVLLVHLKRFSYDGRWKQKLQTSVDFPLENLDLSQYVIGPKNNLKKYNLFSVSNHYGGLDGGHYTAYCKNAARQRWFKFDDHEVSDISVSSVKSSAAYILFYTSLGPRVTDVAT
UniProt Q9P0L0: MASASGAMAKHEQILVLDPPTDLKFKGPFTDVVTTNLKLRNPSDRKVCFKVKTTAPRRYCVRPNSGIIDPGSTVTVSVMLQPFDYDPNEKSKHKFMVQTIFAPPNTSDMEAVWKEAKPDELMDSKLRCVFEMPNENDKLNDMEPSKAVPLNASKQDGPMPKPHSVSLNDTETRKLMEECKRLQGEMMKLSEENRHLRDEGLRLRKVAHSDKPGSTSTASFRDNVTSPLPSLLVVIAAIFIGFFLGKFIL
UniProt A0JNW5: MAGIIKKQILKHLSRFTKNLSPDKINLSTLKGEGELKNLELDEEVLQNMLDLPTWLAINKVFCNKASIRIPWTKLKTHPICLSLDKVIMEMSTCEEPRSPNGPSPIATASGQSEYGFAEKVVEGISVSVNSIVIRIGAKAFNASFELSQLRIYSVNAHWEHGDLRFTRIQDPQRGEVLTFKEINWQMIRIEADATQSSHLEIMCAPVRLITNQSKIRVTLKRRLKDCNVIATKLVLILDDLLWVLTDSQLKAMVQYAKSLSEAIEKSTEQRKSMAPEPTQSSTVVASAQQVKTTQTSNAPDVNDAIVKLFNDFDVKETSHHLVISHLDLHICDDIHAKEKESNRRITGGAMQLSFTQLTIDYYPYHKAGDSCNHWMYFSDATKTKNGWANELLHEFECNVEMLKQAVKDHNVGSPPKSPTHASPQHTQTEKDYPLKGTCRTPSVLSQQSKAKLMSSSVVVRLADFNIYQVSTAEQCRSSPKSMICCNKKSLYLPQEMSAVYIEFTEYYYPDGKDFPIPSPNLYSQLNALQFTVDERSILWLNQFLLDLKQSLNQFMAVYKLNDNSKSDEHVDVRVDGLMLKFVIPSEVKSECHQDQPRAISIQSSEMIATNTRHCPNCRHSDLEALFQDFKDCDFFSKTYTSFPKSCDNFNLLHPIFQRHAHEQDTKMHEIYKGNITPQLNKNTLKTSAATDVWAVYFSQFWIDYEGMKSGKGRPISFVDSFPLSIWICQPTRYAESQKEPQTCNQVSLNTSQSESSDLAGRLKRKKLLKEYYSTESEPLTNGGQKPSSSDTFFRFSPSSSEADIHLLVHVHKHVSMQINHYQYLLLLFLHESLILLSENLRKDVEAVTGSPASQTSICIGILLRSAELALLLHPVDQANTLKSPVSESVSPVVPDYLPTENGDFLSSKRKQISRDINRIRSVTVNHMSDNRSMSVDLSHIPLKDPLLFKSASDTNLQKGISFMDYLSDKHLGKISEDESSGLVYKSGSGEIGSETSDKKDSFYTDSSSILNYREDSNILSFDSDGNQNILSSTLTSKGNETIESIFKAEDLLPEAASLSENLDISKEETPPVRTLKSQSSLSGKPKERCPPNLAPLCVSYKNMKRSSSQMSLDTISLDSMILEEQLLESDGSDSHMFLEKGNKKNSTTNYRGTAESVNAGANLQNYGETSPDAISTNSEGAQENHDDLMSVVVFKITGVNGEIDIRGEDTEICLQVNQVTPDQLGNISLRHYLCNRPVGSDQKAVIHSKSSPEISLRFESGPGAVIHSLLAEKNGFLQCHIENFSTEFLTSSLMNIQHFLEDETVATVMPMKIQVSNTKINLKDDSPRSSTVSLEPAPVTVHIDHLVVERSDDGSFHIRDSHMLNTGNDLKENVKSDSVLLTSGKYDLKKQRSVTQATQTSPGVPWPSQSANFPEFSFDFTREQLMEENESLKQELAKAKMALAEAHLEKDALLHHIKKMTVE
UniProt Q8TAA9: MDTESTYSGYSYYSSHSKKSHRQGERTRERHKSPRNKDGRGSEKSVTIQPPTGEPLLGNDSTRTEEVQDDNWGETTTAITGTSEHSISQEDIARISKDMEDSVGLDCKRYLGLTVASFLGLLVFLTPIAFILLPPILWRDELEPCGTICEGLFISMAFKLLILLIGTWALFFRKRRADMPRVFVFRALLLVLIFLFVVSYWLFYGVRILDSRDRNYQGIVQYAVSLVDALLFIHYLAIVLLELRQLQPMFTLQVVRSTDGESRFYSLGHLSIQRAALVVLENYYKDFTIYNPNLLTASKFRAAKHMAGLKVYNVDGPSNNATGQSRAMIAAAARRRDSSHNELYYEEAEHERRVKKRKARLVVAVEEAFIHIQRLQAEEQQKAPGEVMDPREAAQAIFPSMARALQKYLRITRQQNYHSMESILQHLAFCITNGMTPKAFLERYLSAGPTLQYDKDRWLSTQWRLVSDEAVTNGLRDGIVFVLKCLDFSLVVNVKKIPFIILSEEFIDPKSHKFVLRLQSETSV
UniProt Q9Y4E8: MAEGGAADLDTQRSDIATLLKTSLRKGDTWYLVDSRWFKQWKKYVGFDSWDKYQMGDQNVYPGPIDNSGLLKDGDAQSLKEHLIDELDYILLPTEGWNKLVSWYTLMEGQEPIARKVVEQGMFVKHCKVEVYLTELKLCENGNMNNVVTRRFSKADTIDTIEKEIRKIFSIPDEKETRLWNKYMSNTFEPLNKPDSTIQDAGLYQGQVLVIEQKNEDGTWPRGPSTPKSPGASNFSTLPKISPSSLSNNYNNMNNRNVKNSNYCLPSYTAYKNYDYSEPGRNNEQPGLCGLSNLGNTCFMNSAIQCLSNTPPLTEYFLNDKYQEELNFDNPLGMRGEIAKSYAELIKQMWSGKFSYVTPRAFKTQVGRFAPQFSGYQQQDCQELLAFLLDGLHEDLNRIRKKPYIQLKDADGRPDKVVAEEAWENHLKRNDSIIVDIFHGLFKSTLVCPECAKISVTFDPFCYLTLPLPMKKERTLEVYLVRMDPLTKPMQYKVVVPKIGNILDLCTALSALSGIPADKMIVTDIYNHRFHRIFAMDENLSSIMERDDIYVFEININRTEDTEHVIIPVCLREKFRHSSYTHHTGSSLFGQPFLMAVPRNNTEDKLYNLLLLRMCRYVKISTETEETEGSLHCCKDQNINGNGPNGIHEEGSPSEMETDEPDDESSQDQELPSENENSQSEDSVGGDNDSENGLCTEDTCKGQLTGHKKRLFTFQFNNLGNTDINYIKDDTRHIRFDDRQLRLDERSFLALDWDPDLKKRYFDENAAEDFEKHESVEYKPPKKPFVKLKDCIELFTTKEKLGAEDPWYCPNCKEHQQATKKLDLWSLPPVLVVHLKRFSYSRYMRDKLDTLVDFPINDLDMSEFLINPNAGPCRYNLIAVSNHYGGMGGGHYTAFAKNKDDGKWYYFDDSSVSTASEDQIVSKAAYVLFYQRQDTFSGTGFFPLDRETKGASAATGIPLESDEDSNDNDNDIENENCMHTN
UniProt O14949: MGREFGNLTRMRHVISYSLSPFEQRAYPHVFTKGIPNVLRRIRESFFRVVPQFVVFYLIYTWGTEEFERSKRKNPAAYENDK
UniProt Q9NYH9: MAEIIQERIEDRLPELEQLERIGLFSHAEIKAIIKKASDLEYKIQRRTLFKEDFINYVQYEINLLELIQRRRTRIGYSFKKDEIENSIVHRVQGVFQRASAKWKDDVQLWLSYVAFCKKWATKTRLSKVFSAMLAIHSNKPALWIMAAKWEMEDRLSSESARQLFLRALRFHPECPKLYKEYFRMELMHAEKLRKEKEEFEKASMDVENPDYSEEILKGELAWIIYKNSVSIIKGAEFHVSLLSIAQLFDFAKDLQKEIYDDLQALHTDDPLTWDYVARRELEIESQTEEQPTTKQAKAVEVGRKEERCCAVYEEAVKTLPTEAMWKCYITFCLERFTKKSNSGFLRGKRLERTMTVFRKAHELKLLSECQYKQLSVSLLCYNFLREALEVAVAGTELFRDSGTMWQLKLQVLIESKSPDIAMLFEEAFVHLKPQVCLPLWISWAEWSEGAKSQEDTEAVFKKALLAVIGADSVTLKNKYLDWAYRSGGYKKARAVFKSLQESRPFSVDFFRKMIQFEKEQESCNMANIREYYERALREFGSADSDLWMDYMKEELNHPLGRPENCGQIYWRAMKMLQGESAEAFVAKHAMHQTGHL
UniProt Q8TED0: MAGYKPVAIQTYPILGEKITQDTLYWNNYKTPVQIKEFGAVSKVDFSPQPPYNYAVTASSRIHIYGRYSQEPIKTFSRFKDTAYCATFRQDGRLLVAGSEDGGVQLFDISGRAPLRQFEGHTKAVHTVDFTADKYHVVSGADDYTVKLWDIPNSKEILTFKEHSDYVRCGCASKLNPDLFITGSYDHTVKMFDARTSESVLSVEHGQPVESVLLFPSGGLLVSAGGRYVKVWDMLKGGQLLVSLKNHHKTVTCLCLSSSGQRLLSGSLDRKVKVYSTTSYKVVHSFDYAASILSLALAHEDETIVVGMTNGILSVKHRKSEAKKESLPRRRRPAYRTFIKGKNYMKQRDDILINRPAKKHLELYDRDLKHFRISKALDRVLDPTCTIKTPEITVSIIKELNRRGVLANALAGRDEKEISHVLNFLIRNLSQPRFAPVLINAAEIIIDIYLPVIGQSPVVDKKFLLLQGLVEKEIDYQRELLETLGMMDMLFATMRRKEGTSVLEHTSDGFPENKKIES

log2 fold change, inactive:
UPF2 (UniProt Q9HAU5) -0.025
VDAC2 isoform 2 (UniProt P45880) 0.01
USP10 isoform 2 (UniProt Q14694) 0.009
VCX3B (UniProt Q9H321) 0.101
UFL1 (UniProt O94874) -0.004
USP48 isoform 8 (UniProt Q86UV5) -0.001
UPF3B (UniProt Q9BZI7) 0.016
VAV3 isoform 4 (UniProt Q9UKW4) -0.008
UGDH (UniProt O60701) -0.063
USP8 (UniProt P40818) -0.023
UFD1 isoform 1 (UniProt Q92890) 0.019
VAPA (UniProt Q9P0L0) -0.055
VAC14 (UniProt Q08AM6) -0.004
USP25 (UniProt Q9UHP3) 0
VAMP7 (UniProt P51809) 0.007
UHRF1BP1L (UniProt A0JNW5) -0.014
VANGL1 (UniProt Q8TAA9) 0.099
VDAC1 (UniProt P21796) 0.007
VARS2, A0A0G2JL52 -0.014
USP15 (UniProt Q9Y4E8) -0.006
UQCRQ (UniProt O14949) 0.003
VAMP8 (UniProt Q9BV40) 0.105
UGGT1 (UniProt Q9NYU2) -0.023
VCL (UniProt P18206) 0.026
UXT isoform 2 (UniProt Q9UBK9) -0.006
UEVLD (UniProt Q8IX04) -0.002
UTP6 (UniProt Q9NYH9) -0.044
USF1 (UniProt P22415) 0.061
UTP15 (UniProt Q8TED0) 0.059
USP39 (UniProt Q53GS9) 0.02
UQCC1 (UniProt Q9NVA1) 0.015
VIL1 (UniProt P09327) 0

2 entries drawn at random from those above:
log2 fold change, inactive:
UFD1 isoform 1 (UniProt Q92890) 0.019
UFL1 (UniProt O94874) -0.004

Reference: the supplement of paper PMC10849652
